Values quoted from earlier work, collected in patent US20150175712A1, “ANTAGONIST TO AN ENZYME AND/OR A METABOLITE OF THE KYNURENINE PATHWAY” (ImmuSmol SAS, priority 2012, published 2015).
At least one read-out could not be matched to a standard name with certainty.

Conditions: Pilotte et al 2012; cited from earlier work

Fc1ccc2c(/C=C/c3nnn[nH]3)c[nH]c2c1 [LM-10, trans-6-Fluoro-3-[2-(1H-tetrazol-5-yl)vinyl]-1H-indole]
bioavailability compared to 1MT: higher
